The list shows only some results of the screen, not a fair sample: it gathers tests that were run many times, whatever their T/C, doses with no T/C, and many T/C values between a quarter and a half above the control. Other doses and runs of a compound stand elsewhere. T/C gives the treated animals as a percentage of the vehicle group. Schedule codes are those of the source, taken here to give the interval after Q, in days (D) or hours (H), and the number of doses after X. Some doses have a count of surviving animals in place of a T/C: the source files T/C as zero there, which appears to mark a toxic dose or a test without result, not a measured value. Counts of survivors are from the toxicity check (mostly the fifth day) where no day follows; animals may have died later.
System: nude mice, LX-1 lung xenograft intrarenal, tumor weight T/C
Test: NCI In Vivo Anticancer Drug Screen. Data for tumor model Human Lung LX-1 Xenograft (intrarenal inoculation) in NU/NU Swiss (nude) mice
Conditions: T/C endpoint: mean tumor weight change, higher T/C = larger tumour; for T/C: evaluated on day 11
Method: The antitumor activity of compounds was measured in mice bearing transplantable tumors. Survival or tumor size were measured and the results are expressed as the measurement made in the treated group (T) divided by the measurement made in the vehicle treated control group (C). The tumor model used in this assay is Human Lung LX-1 Xenograft (intrarenal inoculation) in NU/NU Swiss (nude) mice

[1] = dose: 1200.0 mg/kg/injection, schedule: Q04DX003 (sc), vehicle: Klucel (hydroxypropylcellulose) (HPC)
[2] = dose: 100.0 mg/kg/injection, schedule: Q04DX003 (sc), vehicle: saline
[3] = dose: 300.0 mg/kg/injection, schedule: Q04DX003 (sc), vehicle: saline
[4] = dose: 600.0 mg/kg/injection, schedule: Q04DX003 (sc), vehicle: saline

Q: For `C[C@@](O)(/C=C/[C@H]1CC=CC(=O)O1)[C@@H](C[C@@H](O)\C=C/C=C\C=C\CO)OP(=O)(O)O`, which T/C (dose: 3.75 mg/kg/injection, schedule: Q04DX003 (sc), vehicle: other) is on record?
A: Its T/C is 125 % of control.

Q: And the survivor count (dose: 30.0 mg/kg/injection, schedule: Q04DX003 (sc), vehicle: other)?
A: Its survivor count is 0 of 6 on day 11.

Q: And the survivor count (dose: 37.5 mg/kg/injection, schedule: Q04DX003 (sc), vehicle: other)?
A: Its survivor count is 2 of 6 on day 11.

Q: What about the survivor count (dose: 75.0 mg/kg/injection, schedule: Q04DX003 (sc), vehicle: other) of the same compound?
A: Its survivor count is 0 of 6 on day 11.

Q: What about the survivor count (dose: 150.0 mg/kg/injection, schedule: Q04DX003 (sc), vehicle: other) of the same compound?
A: The survivor count was 0 of 6 on day 11.

Q: What about the survivor count (dose: 300.0 mg/kg/injection, schedule: Q04DX003 (sc), vehicle: other) of the same compound?
A: Its survivor count is 0 of 6 on day 11.

Q: How did the survivor count (dose: 300.0 mg/kg/injection, schedule: Q04DX003 (sc), vehicle: Klucel (hydroxypropylcellulose) (HPC)) turn out when `CC1=CC(=Nc2ccc(N(CCCl)CCCl)cc2)C=C(C)C1=O` was run?
A: Its survivor count is 3 of 6 on day 11.

Q: What about the survivor count [1] of the same compound?
A: Its survivor count is 3 of 6 on day 11.

Q: Which survivor count [2] does the source give for `NC(=O)c1ncn2c(=O)n(CCCl)nnc12` here?
A: The survivor count was 0 of 6 on day 11.

Q: And the survivor count (dose: 100.0 mg/kg/injection, schedule: Q04DX003 (sc), vehicle: suspension in saline)?
A: The survivor count was 2 of 6 on day 11.

Q: For `CC/C(=C(/CC)c1ccc(O)cc1)c1ccc(O)cc1`, which survivor count (dose: 200.0 mg/kg/injection, schedule: Q01DX010 (sc), vehicle: saline with Tween-80) is on record?
A: Its survivor count is 0 of 3 on day 11.

Q: And the survivor count (dose: 400.0 mg/kg/injection, schedule: Q01DX010 (sc), vehicle: saline with Tween-80)?
A: Its survivor count is 1 of 3 on day 11.

Q: For `O=C1CC2(C(=O)N1CN1CCCCC1)c1ccccc1-c1ccccc12`, which survivor count (dose: 800.0 mg/kg/injection, schedule: Q04DX003 (sc), vehicle: Klucel (hydroxypropylcellulose) (HPC)) is on record?
A: Its survivor count is 3 of 6 on day 11.

Q: And the survivor count (dose: 1600.0 mg/kg/injection, schedule: Q04DX003 (sc), vehicle: Klucel (hydroxypropylcellulose) (HPC))?
A: The survivor count was 1 of 6 on day 11.

Q: Which survivor count (dose: 6.0 mg/kg/injection, schedule: Q04DX003 (sc), vehicle: saline) does the source give for `CSCS(=O)C[C@H](CO)NC(=O)/C=C/c1c(C)[nH]c(=O)[nH]c1=O` (stereo partly specified) here?
A: The survivor count was 0 of 6 on day 11.

Q: How did the survivor count [2] turn out when `ClCC[Se](Cl)(Cl)c1ccccc1` was run?
A: The survivor count was 2 of 6 on day 11.

Q: `C[CH2][Ge]1([CH2]C)[CH2]CC2(CCN(CCCN(C)C)C2)C[CH2]1` was tested. Which survivor count [3] did it give?
A: Its survivor count is 0 of 6 on day 11.

Q: What about the survivor count [4] of the same compound?
A: The survivor count was 0 of 6 on day 11.

Q: What about the survivor count (dose: 1200.0 mg/kg/injection, schedule: Q04DX003 (sc), vehicle: saline) of the same compound?
A: Its survivor count is 0 of 6 on day 11.

Q: `COc1cccc2c1C(=O)c1c(O)c3c(c(O)c1C2=O)C[C@@](O)(C(C)=O)C[C@@H]3OC1CC(N(C)C)C(O)C(C)O1` (stereo partly specified) was tested. Which survivor count (dose: 8.0 mg/kg/injection, schedule: Q01DX010 (sc), vehicle: water) did it give?
A: The survivor count was 0 of 3 on day 11.

Q: What about the survivor count (dose: 16.0 mg/kg/injection, schedule: Q01DX010 (sc), vehicle: water) of the same compound?
A: The survivor count was 0 of 3 on day 11.

Q: And the survivor count (dose: 24.0 mg/kg/injection, schedule: Q04DX003 (sc), vehicle: water)?
A: The survivor count was 1 of 3 on day 11.

Q: What about the survivor count (dose: 48.0 mg/kg/injection, schedule: Q04DX003 (sc), vehicle: water) of the same compound?
A: Its survivor count is 0 of 3 on day 11.

Q: For `C[C@]12CCC(=O)C=C1CC[C@@H]1[C@@H]2[C@@H](O)C[C@@]2(C)[C@H]1CC[C@]2(O)C(=O)CO`, which survivor count (dose: 600.0 mg/kg/injection, schedule: Q04DX003 (sc), vehicle: Klucel (hydroxypropylcellulose) (HPC)) is on record?
A: Its survivor count is 3 of 5 on day 11.

Q: And the survivor count [1]?
A: The survivor count was 1 of 5 on day 11.

Q: And the survivor count (dose: 2400.0 mg/kg/injection, schedule: Q04DX003 (sc), vehicle: Klucel (hydroxypropylcellulose) (HPC))?
A: The survivor count was 0 of 6 on day 11.

Q: What does the source list for `ClCCCN1CCCCC1CCl` (stereo unspecified)?
A: survivor count (dose: 50.0 mg/kg/injection, schedule: Q04DX003 (sc), vehicle: saline): 0 of 6 on day 11; survivor count [2]: 0 of 6 on day 11

Q: With `CC1=C(/C=C/C(C)=C/C=C/C(C)=C/CO)C(C)(C)CCC1` as the compound, how does the T/C (dose: 200.0 mg/kg/injection, schedule: Q04DX003 (sc), vehicle: saline with Tween-80) read?
A: Its T/C is 128 % of control.

Q: With `N=C(N)Sc1cc(O)ccc1O` as the compound, how does the survivor count [3] read?
A: Its survivor count is 0 of 6 on day 11.

Q: What about the survivor count [4] of the same compound?
A: The survivor count was 0 of 6 on day 11.
